Assay results published in paper PMC6746701, “A phyB-PIF1-SPA1 kinase regulatory complex promotes photomorphogenesis in Arabidopsis” (Nature Communications, 2019).
These are yes or no findings as the source states them, for the method shown. For some of these results: In cells and extracts the contact can be indirect. Some entries that bind do so weakly or less than the wild type. For some of these results: Where a sequence is shown, tags or fusion partners need not be part of it. One block for each molecule: values may come before it.

The chains behind the UniProt entries cited, without tags or fusion partners. Where a name states a change or a piece, a line headed by the entry shows the natural chain unless it says otherwise. Residues count along the entry.
UniProt P14713: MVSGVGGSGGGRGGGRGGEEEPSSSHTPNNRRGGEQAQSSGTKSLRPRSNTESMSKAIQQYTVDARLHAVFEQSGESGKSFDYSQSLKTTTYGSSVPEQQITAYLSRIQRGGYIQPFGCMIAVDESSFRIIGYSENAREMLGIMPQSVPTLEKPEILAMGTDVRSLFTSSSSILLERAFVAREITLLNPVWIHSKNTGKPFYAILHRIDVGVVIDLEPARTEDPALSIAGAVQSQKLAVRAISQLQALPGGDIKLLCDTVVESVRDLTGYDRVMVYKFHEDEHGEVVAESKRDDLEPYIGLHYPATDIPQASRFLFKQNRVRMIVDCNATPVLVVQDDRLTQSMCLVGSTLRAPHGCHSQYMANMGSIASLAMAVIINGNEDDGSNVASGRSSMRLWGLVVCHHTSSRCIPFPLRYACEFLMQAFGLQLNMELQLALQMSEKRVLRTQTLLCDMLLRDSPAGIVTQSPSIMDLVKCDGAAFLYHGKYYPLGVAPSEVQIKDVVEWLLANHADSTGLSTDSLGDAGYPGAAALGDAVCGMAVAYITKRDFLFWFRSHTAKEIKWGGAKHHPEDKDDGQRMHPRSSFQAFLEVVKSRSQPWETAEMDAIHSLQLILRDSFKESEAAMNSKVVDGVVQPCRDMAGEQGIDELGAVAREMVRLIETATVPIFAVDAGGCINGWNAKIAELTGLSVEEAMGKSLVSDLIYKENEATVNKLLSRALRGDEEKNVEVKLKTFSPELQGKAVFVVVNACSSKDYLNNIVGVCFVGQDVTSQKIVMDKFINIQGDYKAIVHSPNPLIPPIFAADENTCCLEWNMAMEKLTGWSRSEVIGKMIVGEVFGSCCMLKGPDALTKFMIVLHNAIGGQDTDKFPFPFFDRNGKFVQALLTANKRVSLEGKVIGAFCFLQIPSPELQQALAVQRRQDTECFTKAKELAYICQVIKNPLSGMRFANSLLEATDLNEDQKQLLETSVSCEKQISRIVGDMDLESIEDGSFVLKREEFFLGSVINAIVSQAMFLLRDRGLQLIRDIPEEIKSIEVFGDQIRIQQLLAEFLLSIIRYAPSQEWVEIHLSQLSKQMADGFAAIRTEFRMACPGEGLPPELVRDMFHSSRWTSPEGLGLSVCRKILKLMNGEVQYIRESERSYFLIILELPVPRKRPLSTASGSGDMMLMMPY
phyB-GFP ΔC purified from yeast (Saccharomyces cerevisiae): residues 1-1092 of P14713
LexA-PHYB CT (aa 625-1172): residues 625-1172 of P14713

Experiments:
[1] = biological target: LexA-PHYB CT ΔC (aa 625-1092) (Arabidopsis) (UniProt P14713); test: two-hybrid; dimerisation of phyB C-terminal fragments in yeast (Supplementary Fig. 8c); vectors not told
[2] = biological target: LexA-PHYB CT (aa 625-1172) (Arabidopsis) (UniProt P14713); test: as above
[3] = biological target: phyB-GFP ΔC purified from yeast (Saccharomyces cerevisiae) (Arabidopsis) (UniProt P14713); test: pull-down; in vitro: phyB-GFP FL or ΔC purified from yeast and MBP-SPA1 expressed from E. coli; light-dependent; only the target purified
[4] = biological target: T1, GST-PIF1-strep (Arabidopsis) (UniProt Q8GZM7); test: pull-down; tripartite complex: 2 µg GST-PIF1-strep on GST agarose beads, cleared E. coli lysate with MBP-SPA1, without or with 1-2 µg purified phyB; 50 mM Tris pH 7.5, 150 mM NaCl, 0.1% Tween 20; anti-MBP blot; only the target purified
T1 sequence: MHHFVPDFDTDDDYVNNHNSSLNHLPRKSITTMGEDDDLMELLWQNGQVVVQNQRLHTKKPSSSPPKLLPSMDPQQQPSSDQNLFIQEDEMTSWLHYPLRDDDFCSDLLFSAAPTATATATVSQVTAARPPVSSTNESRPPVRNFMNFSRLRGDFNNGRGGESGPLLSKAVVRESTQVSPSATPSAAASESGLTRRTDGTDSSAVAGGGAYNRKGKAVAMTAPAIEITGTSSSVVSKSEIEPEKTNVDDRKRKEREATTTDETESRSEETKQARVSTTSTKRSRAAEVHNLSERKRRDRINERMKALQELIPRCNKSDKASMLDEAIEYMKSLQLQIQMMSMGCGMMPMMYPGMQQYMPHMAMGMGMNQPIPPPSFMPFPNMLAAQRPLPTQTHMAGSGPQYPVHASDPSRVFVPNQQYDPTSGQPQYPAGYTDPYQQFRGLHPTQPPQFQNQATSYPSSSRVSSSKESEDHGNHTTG

binding [1]: no binding
binding [2]: binds
Molecule: LexA-PHYB CT ΔC (aa 625-1092) (from UniProt P14713 625-1092) (domain or fragment)

binding [3]: no binding
binding [4]: binds
B1: MBP-SPA1 (protein, UniProt Q9SYX2 1-1029)
chain: MPVMERVAEETVATNNIQLKARVDDVPCNKLDARHNDMVIQSETANSDCPGSSAHRNVDLTKPPPPEEAAGAKLSVEELTLGNYRIVQGSNNTNVDSPRAGKFEHLYRLARGSAFRAGDGDLDSQPRDMDQMLSRIRQQLAGAPSERQNLKPFMSRRSDQNLEAFSERLRAAGENSIMNAPALISEGVQMKTPVSSSNFSQLLLKRAMKGKGVVGKNQETPPEFVSDQDLGSKEKKLDISKSPTPHDVLPLKSSPKGNGMVSHGDGNHSKSSIGISLREFLRSSYAKREKRHGLCLFRQLVELVDSAHSKRLFLLDLRPSLFTLVPSKKLRYIGNFGKNDLESDVDEDLNRRRPVVEESSSGGRDSKKRKMDLHLNSPGNQLQATSTGRPFKRKSPVIDLNMVDARNPDSCELQQQDYIKNLSVSSVSRKQSMSTWLEEQWYTCPEEINGEDIGEKSNIYALGVLLFELLCHCESGEMHAAMMADLRHRILPPTFLSKYPKEAGFCLWLLHPEPSSRPSARDILKSELICEDDSVKSTAAAEEISELLLHFLSSLEVQKKKKASKLLQDIQTLEDDIKEAERRYSSNVSLVRSHGAIEKRVQSSPLDEHCTTSSALFVPTANTDRLMSNIRQLEDAYFFMRSQINLSSSAATARSDKTLKDRDRCSENQNENQDMSTKGKSSDQLEVFFEGLCKFARYSKFETCGTIRSGDLLNSASVVCSLSFDPDEEHIAAAGISKKIKIFDFNAFMNESVGVHYPLVEMVNKSKLSCVCWNSYIKNYLASTDYDGVVQIWDAGTGQGFSQYTEHQKRAWSVDFSPSDPTKFVSGSDDCSVKLWSINEKRSLGTIWSPANVCCVQFSSYSNHLLAFGSADYKVYCYDLRYVKTPWCTLAGHEKAVSYVKFMDSETIVSASTDNSLKLWNLNKTNSSGLSPGACSLTYKGHTNQKNFVGLSVLDGYIACGSETNEVYSYYKSLPMPMTSYKFGSVDPISGNEYFDDNGQFVSSVCWRKKSNMLVAANSTGNMKLLKLV
